PubChem BioAssay AID1259405 | NCATS – 2018

Screen: 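Knock-downs that lift recombinant protein yield in hamster ovary cells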 (primary screen)
System: Chinese hamster CHO-K1 ovary cells with stable secreted eGFP expression
Reagent: single siRNA against mouse genes, 0.8 pmol siRNA per well (2 µl of 400 nM stock)
Time to read-out: 3 days
Measurement: 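Percent of the per-plate non-targeting control median for intracellular GFP per well by laser scanning cytometry and for cell viability by ATP luminescence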
Reading the numbers: GFP, % of control: higher = more GFP per well, higher productivity; viability (ATP), % of control: higher = more viable cells (more ATP)
Active means: 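a knock-down is called active if GFP reaches 120% or more of non-targeting control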
The whole screen tested about 50,000 reagents; this is a part drawn at random. Over the whole deposit, about 4,000 (8%) are marked active. 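Mouse siRNA library applied to hamster cells; one well for each siRNA.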 Reagents against one gene are numbered here.

target gene	reagent no.	GFP, % of control	viability (ATP), % of control	Outcome
Cxcl16	1	113	73.6	inactive
Cxcl16	2	96.7	78.9	inactive
Pcdhb8	1	88.1	89.3	inactive
Pcdhb8	2	120	97.5	inactive
Zdhhc12	1	71	53.6	inactive
Zdhhc12	2	118	55.7	inactive
Zdhhc12	3	97.7	103	inactive
Scn9a	1	98.8	75.3	inactive
Scn9a	2	81.2	60.6	inactive
Scn9a	3	84	64.9	inactive
Plod3	1	89.1	81	inactive
Plod3	2	78.2	59.7	inactive
Plod3	3	52.9	33.3	inactive
Palmd	1	63.8	63.9	inactive
Palmd	2	81.2	71.1	inactive
Palmd	3	82.8	101	inactive

Just “viability (ATP), % of control” (3 entries from above):
Scn9a #2 = 60.6
Scn9a #3 = 64.9
Plod3 #1 = 81

Continued:
target gene	reagent no.	GFP, % of control	viability (ATP), % of control	Outcome
Kng2	1	62.9	56.3	inactive
Kng2	2	47.7	45.6	inactive
Kng2	3	87.8	101	inactive
Papss1	1	113	93.4	inactive
Pcolce	1	65.4	65.3	inactive
Pcolce	2	84.8	86.4	inactive
Pcolce	3	111	65.2	inactive
4931431C16Rik	1	79.3	81.9	inactive
4931431C16Rik	2	48.4	73.4	inactive
4931431C16Rik	3	70	73.2	inactive
3830403N18Rik	1	86.9	93.7	inactive
3830403N18Rik	2	168	29.3	active
3830403N18Rik	3	87.3	120	inactive
Or5af1	1	61.1	48.6	inactive
Or5af1	2	51.2	58.3	inactive
Or5af1	3	83.8	65.5	inactive
Irf9	1	77.8	77.9	inactive
Irf9	2	72.3	74.1	inactive
Irf9	3	99.8	125	inactive
